Laboratory results as given in PMC7862700.
This is a selection; strong and weak results do not stand in their true shares. At the low end of the ranking, values are background and their order means little.

How the values were obtained:
Test in all cases: DAPPL (digital affinity profiling via proximity ligation, sequencing)
Details in all cases: 10 mM Tris-HCl pH 7.5, 50 mM NaCl, 1 mM DTT, 4% glycerol, room temperature, 30 min; GST-TFs on glutathione beads, 16-mer random dsDNA library, 0.1% …; high values mean tight binding; double strand, one strand shown; scale: fold enrichment (6-mer frequency, TF over GST control)
ELK1 = molecular target: T1, ELK1 (UniProt P19419)
T1 sequence: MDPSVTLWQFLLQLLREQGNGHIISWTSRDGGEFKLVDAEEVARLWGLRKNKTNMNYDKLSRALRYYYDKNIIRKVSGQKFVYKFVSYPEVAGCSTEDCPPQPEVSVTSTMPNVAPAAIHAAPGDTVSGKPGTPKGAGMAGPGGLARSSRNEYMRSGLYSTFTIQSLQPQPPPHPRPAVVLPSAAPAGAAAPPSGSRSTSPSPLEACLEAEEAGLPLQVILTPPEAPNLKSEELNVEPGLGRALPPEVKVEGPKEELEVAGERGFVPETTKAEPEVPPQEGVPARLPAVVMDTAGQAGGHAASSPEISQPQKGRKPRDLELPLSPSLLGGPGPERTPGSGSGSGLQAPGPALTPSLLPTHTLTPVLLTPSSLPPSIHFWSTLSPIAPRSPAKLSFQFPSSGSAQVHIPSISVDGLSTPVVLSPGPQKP

ELK3 = molecular target: T2, ELK3 (UniProt P41970)
T2 sequence: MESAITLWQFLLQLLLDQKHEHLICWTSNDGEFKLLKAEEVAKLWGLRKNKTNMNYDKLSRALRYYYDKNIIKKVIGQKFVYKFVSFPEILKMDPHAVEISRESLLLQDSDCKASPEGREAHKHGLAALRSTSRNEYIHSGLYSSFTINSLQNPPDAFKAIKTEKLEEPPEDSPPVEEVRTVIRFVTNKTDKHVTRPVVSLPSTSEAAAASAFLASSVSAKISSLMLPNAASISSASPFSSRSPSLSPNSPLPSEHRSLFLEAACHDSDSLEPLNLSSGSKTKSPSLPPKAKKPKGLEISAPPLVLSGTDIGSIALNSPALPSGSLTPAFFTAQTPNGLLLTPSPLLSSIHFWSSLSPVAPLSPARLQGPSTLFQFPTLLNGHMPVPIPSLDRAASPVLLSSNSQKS

SPIC = molecular target: T3, SPIC (UniProt Q8N5J4)
T3 sequence: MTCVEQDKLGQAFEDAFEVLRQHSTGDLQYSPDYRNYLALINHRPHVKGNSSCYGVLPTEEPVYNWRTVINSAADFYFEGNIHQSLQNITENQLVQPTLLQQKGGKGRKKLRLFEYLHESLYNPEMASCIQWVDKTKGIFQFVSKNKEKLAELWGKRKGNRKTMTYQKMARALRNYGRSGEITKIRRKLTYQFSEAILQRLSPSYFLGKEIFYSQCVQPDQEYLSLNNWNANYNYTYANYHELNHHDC

ETS2 = molecular target: T4, ETS2 (UniProt P15036)
T4 sequence: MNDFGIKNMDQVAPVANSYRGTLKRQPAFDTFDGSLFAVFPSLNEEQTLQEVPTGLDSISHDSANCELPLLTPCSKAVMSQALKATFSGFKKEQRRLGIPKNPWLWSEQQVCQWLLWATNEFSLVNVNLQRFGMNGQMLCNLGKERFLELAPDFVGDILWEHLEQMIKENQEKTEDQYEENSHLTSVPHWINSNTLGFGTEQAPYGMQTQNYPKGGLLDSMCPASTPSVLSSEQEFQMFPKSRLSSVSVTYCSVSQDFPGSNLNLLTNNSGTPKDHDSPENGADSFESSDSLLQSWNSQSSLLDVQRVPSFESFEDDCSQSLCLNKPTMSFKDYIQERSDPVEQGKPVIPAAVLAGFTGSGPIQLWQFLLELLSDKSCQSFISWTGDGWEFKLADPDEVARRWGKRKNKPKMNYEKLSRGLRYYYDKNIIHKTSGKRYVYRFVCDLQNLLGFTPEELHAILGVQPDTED

ETV3 = molecular target: T5, ETV3 (UniProt P41162-2)
T5 sequence: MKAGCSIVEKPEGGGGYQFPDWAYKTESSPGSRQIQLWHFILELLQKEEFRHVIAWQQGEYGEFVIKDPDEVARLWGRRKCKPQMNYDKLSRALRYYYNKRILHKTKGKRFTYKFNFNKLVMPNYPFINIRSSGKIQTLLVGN

| Sequence | binding signal (ELK1) | binding signal (ELK3) | binding signal (SPIC) | binding signal (ETS2) | binding signal (ETV3) |
| --- | --- | --- | --- | --- | --- |
| GTGTGT | 0.484 | 0.543 | 0.454 | 0.586 | 0.51 |
| CAGTGT | 0.671 | 0.656 | 0.734 | 0.712 | 0.618 |
| TTCGTG | 0.974 | 0.839 | 0.837 | 0.943 | 0.934 |
| TCAGCG | 0.863 | 0.764 | 0.854 | 0.819 | 0.826 |
| GATCGC | 0.931 | 0.822 | 0.715 | 0.82 | 0.829 |
| CATGTC | 0.78 | 0.749 | 0.792 | 0.835 | 0.841 |
| CGGTCG | 0.4 | 0.382 | 0.429 | 0.401 | 0.425 |
| GTTCGG | 0.572 | 0.575 | 0.753 | 0.588 | 0.66 |
| GCGGGG | 0.445 | 0.513 | 0.523 | 0.464 | 0.445 |
| GCGGTA | 0.828 | 0.651 | 0.845 | 0.714 | 0.781 |
| GGGAGT | 0.249 | 0.242 | 0.208 | 0.239 | 0.24 |
| CCGGGC | 0.858 | 0.806 | 0.767 | 0.869 | 0.885 |
| GACTCA | 0.994 |  | 0.915 | 0.956 | 0.938 |
| CACAGT | 0.688 | 0.714 | 0.716 | 0.761 | 0.705 |
| CAGCAA | 0.997 |  | 0.813 | 0.938 | 0.901 |
| GTGTAG | 0.678 | 0.725 | 0.692 | 0.619 | 0.673 |
| TAGTCG | 0.467 | 0.554 | 0.474 | 0.498 | 0.427 |
| GCGCTA | 0.977 |  | 0.991 | 0.985 | 0.917 |
| GGAGCG | 0.396 | 0.401 | 0.37 | 0.366 | 0.38 |
| GCATAT | 0.956 |  | 0.785 | 0.918 | 0.939 |
| CCACGG | 0.863 | 0.942 | 0.944 | 0.843 | 0.878 |
| GACAAC | 0.92 | 0.965 | 0.881 | 0.94 | 0.946 |
| CAACAG | 0.914 |  | 0.744 | 0.838 |  |
| GGAAAG | 0.894 |  | 0.9 | 0.925 |  |
| GGGACG | 0.476 | 0.501 | 0.453 | 0.493 | 0.456 |
| CGGAGC | 0.404 | 0.38 | 0.335 | 0.359 | 0.382 |
| GAGGCT | 0.639 | 0.632 | 0.573 | 0.576 | 0.615 |
| CGGCAG | 0.826 | 0.914 | 0.889 | 0.83 | 0.768 |
| CGAGCG | 0.912 |  | 0.998 | 0.918 | 0.961 |

A different layout for some results above.
Sequence	binding signal (ELK1)	binding signal (ELK3)	binding signal (SPIC)	binding signal (ETS2)	binding signal (ETV3)
CACAGT	0.688	0.714	0.716	0.761	0.705
CAGCAA	0.997		0.813	0.938	0.901
